At least one structure is not confirmed: it was looked up by name or label, or the drawing left a doubt.
Assays:
Locomotor activity = type: in vivo, Sprague-Dawley rats
Experimental: The locomotor effects of compound 2 were evaluated using male Swiss Webster mice according to previously published procedures: Izenwasser, S., Terry, P., Heller, B., Witkin, J. M., and Katz, J. L. (1994) Differential relationships among dopamine transporter affinities and stimulant potencies of various uptake inhibitors. Eur. J. Pharmacol., 263, 277-283.
Thus the small behavioral responses to the piperidine analog appear to last longer than that of cocaine.

[1] = Intravenous drug self-administration; type: in vivo, rats; settings: i.v., FR10; cocaine 1 mg/kg/infusion; analog 2 0.3-3 mg/kg/infusion; analog 3 0.125-0.5 mg/kg infusion; vs saline extinction
Description: J. Neurosci., 16, 7416-7427.
Rats were initially trained to lever press for food pellets in standard operant boxes. Following lever press training, rats were implanted with polyvinyl chloride catheters into femoral veins under halothane anesthesia (2-3% in medical grade oxygen) and were allowed to recover for an additional 7 days before initiation of i.v. drug self-administration testing. During drug self-administration sessions, food pellets were no longer delivered, and instead intravenous injections of drugs were delivered by way of the catheter.
Following this second extinction test, self-administration of piperidine analog 2 was studied at doses of 1, 3, and 0.3 mg/kg/infusion in that order. Each dose was tested for five days. During all the re-acquisition test days, a priming infusion was given at the start of the session on each day.

[2] = Drug discrimination, cocaine substitution and co-administration tests; type: in vivo, rats; settings: cocaine 1.25-10 mg/kg

COC(=O)[C@H]1[C@@H](OC(=O)c2ccccc2)C[C@@H]2CC[C@H]1N2C [cocaine, reference compound]
time-course of stereotypic response (Locomotor activity; 90 minutes following the drug injection): clear tendency to decline | distance traveled (Locomotor activity; i.p., cocaine 10 mg/kg, analog 2 3-20 mg/kg, compared to saline control): significant (P<0.05) increase | stereotypic behavior / stereotypic time (Locomotor activity; i.p., cocaine 10 mg/kg, analog 2 10 and 20 mg/kg, compared to saline control): significant (P<0.05) increase | self-administration responding [1]: significantly (P<0.05) higher rates of responding | cocaine-appropriate responding [2]: dose-related increase

From US6806281B2 (Georgetown University, priority 1997, dated 2004)
